No constants are given. Whether binding was seen depends on the method and setting. In cells and extracts the contact can be indirect. Some entries that bind do so weakly or less than the wild type. One block for each molecule: values may come before it.
How the values were obtained:
[1] = molecular target: human FLAG-tagged MTO1 (human) (UniProt Q9Y2Z2); experiment: co-IP; HEK 293T cells transiently expressing MTO1-FLAG; lysis buffer 1% NP40, 50 mM Tris-HCl pH 7.6, 150 mM NaCl; supernatants incubated overnight at 4°C with beads cross-linked to anti-FLAG or anti-MTPAP antibody; Western blot with anti-FLAG, anti-MTPAP and TOM20 antibodies
[2] = molecular target: T1, MTPAP, mitochondrial poly(A) polymerase (human (endogenous in HEK 293T)) (UniProt Q9NVV4); experiment: as above
T1 sequence: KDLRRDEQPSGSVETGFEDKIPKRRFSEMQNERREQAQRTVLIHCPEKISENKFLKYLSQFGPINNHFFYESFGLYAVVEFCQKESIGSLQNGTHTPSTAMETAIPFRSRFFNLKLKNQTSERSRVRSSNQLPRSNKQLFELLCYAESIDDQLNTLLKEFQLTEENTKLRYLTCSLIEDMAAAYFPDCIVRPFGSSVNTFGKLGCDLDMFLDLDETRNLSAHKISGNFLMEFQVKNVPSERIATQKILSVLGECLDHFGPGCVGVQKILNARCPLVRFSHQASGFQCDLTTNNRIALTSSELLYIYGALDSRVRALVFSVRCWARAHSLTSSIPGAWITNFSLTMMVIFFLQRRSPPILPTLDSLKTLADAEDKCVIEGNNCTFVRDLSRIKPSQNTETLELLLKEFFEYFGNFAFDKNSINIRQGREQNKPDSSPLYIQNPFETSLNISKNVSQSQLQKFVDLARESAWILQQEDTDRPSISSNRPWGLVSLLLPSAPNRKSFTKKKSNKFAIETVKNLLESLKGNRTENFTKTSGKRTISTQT

The chains behind the UniProt entries cited, without tags or fusion partners. Residues count along the entry.
UniProt Q9Y2Z2, residues 26-717: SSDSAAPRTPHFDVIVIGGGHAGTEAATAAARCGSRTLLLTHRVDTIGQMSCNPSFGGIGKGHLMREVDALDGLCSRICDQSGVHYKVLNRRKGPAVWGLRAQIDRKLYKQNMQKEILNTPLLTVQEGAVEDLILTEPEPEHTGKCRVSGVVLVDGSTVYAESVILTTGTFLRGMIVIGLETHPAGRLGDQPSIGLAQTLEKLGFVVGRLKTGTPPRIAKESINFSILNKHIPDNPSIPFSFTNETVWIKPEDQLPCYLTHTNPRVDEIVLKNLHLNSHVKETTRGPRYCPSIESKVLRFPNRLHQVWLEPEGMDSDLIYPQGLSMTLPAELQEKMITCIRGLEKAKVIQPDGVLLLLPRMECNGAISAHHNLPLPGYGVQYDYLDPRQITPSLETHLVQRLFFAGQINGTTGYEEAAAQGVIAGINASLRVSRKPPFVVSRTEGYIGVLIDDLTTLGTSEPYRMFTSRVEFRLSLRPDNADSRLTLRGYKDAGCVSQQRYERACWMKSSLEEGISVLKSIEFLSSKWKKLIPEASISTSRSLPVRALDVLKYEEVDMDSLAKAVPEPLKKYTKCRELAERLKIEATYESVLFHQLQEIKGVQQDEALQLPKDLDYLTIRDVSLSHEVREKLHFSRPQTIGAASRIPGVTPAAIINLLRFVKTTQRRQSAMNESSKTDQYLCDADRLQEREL
UniProt Q15388: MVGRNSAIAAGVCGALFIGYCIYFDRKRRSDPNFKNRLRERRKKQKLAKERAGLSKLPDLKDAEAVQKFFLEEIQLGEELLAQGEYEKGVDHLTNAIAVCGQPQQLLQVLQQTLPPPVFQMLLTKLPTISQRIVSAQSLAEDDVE

binding [1]: no binding
Molecule: TOM20 (from UniProt Q15388 1-145)

binding [2]: binds
Molecule: human FLAG-tagged MTO1 (from UniProt Q9Y2Z2 26-717)

binding [1]: binds
B1: MTPAP, mitochondrial poly(A) polymerase (protein, UniProt Q9NVV4 38-582)
chain: T1 sequence
